Data from PMC9666523.
No constants are given. Whether binding was seen depends on the method and setting. In cells and extracts the contact can be indirect. Binding can be weak; no strength is given. Where a sequence is shown, tags or fusion partners need not be part of it.

Target: T1, FLAG-Sting (UniProt Q3TBT3)
T1 sequence: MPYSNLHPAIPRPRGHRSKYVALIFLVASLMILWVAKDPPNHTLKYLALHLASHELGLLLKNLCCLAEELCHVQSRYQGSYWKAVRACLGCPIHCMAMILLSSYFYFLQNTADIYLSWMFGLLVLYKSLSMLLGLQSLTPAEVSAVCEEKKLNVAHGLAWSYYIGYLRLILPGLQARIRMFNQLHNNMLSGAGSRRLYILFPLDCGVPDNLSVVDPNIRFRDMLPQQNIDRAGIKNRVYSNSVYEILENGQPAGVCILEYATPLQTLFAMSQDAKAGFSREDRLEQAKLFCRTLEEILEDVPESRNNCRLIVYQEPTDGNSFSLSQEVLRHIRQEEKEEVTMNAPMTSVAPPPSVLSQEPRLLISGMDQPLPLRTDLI
Assay: co-IP; HEK293T cells transfected with FLAG-Sting and HA-Rab GTPases, harvested 24 h later; lysis in 20 mM Tris-HCl pH 7.4, 0.5% Nonidet-P40, 150 mM NaCl; IP with the FLAG antibody on Protein G dynabeads overnight at 4 °C; western blot

- binding: binds weakly
Substance: HA-Rab27
